Whole data set: some 33,000 sequences, median “E-score (-0.5 to 0.5)” near -0.016, cut for the highest 2% near 0.3. Some of the results follow.
The sequences below were run against T1, Yer184c (UniProt P39961) (assay: PBM E-score (8-mer binding enrichment) (E-score (-0.5 to 0.5)); higher = stronger / more preferred TF binding). Details: protein concentration: 100 nM; construct: GST-full length.
T1 sequence: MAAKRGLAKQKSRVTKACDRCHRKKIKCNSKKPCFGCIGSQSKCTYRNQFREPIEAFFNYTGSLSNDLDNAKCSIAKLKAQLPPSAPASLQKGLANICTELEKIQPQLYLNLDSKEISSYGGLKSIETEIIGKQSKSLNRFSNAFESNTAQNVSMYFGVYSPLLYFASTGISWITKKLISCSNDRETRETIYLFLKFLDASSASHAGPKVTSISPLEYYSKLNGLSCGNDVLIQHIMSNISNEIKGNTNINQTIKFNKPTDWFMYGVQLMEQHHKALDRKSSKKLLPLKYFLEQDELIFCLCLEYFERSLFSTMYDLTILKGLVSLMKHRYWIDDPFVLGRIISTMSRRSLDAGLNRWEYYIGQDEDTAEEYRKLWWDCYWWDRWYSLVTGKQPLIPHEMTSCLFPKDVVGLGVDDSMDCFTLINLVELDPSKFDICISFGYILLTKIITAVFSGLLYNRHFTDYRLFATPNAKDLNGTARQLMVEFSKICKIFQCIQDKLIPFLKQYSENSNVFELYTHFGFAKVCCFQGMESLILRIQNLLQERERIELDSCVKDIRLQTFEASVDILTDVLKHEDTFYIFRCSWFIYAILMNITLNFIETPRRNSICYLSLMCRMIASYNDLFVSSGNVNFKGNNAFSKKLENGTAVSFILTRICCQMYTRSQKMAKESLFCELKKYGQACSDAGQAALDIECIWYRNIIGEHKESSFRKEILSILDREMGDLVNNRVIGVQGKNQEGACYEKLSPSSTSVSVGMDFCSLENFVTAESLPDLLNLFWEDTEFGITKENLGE
Method in brief: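 Detection of bound protein used fluorescent anti-GST, with scans normalised by masliner. The proteins were GST-tagged yeast transcription factors applied at about 100-200 nM to universal all-10-mer Agilent arrays made double-stranded by primer extension. Each ungapped eight-base word, pooled with its reverse complement, was scored with an E-score from the Universal PBM Analysis Suite.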

Sequence | PBM E-score
CTACCCAA | -0.164
GTCGCGCA | -0.0795
CTACAAAG | 0.116
AGTGACAG | 0.055
GATCAGAA | -0.147
AAGGGCAA | 0.0626
CATTCAGC | 0.056
ATACCCCG | -0.0236
ATTATTGG | 0.0735
GCTAAAGC | -0.0627
CCTAGATC | -0.28
ACTCTGCA | -0.0169
CAGATCGG | 0.103
GCGAGCCA | -0.109
CGTACAGC | -0.0968
CCCGTAAG | -0.117
ACCATTTC | -0.0512
AACCCATC | -0.186
ATGGACAT | 0.0596
CCTCTTTA | -0.159
GTAGTGTA | 0.0469
GTTATTCA | 0.185

Sequence | PBM E-score
ATGCACTA | -0.0462
GCCCTCCC | -0.238
AGCGATAT | 0.054
CAAAATAC | 0.142
CCAATTGA | -0.0725
ATCACCTG | -0.283
GACCCAAA | -0.0393
CGCCACCC | -0.266
GGCAAGAC | -0.0949
TAAGTGAA | 0.0657
CAAAGAAC | 0.151
CCATCAGA | -0.122
ACCTCAAC | -0.027
GTATAGAA | 0.0035
AGGATCAC | -0.179
CCCTCAAG | -0.297
CTCGGTGA | 0.171
CTGACGTA | -0.0533
CTAGCGTC | -0.155
ACTGTATA | 0.0749
AGTGATCG | -0.12
ATGAACGG | 0.0226

Sequence | PBM E-score
CGGTTCAG | 0.105
CAGAAATG | 0.0134
GGGTGAGA | -0.217
CGACTCTA | -0.149
CCTACAAG | -0.0682
GAGAGATA | 0.0351
ATGATAGA | 0.0813
CACCACAG | -0.0222
CCCTGACC | -0.0998
ACCAAACA | 0.175
ACAGCCCC | -0.262
GCGCAGAC | 0.0537
CTCCCGAC | 0.00724
AAGGCTTC | -0.0592
ACGCGATG | 0.0181
CCTTTCAA | 0.00713
CCAGAAGA | -0.0993
GGACAGTA | 0.203
CACCTGAA | 0.0307
CTGCTTTA | 0.115
TCGGTTCA | 0.148
CACCTATC | -0.0589

Sequence | PBM E-score
CTACCGGA | 0.129
CGGACTTC | 0.125
TAAAATAA | 0.231
GCTCGACC | -0.0716
ACAGTAAT | 0.056
AACGAGCG | -0.0126
AAGTCGCG | 0.0796
ATTCTGCG | -0.00744
AATCTGGC | -0.0672
GATGCTCA | -0.0696
ACGGCGAA | 0.268
CATGAAAC | -0.0106
ATCTGTAC | 0.0648
TACGTCCA | -0.164
CCCTGGTA | -0.265
GTCGACGA | 0.032
CAACCTAA | -0.0431
GAAAGGCA | 0.212
GGAGTGGA | -0.142
CTGGTGCC | -0.198

7 successive records out of the list so far, quoted:
Sequence | PBM E-score
TACGTCCA | -0.164
CCCTGGTA | -0.265
GTCGACGA | 0.032
CAACCTAA | -0.0431
GAAAGGCA | 0.212
GGAGTGGA | -0.142
CTGGTGCC | -0.198

From the supplement of paper PMC3334620
